Assay results: article PMC5715787, “Structural basis for antibody recognition of the NANP repeats in Plasmodium falciparum circumsporozoite protein” (Proceedings of the National Academy of Sciences of the …, 2017)
Marks after values point to notes of the source that are not given here.

What was measured:
[1] = tested on: Fab311; assay: ITC affinity measurement of peptides to Fab311; type: binding, human; conditions: 25 °C, Dulbecco's PBS, Fab311 10.3 μM in cell, average and SD of triplicate experiments
Experimental: (§1) ITC affinity measurements were performed using a MicroCal Auto-iTC200 instrument (GE Healthcare). […]
(§2) General. All peptides were ordered from Innopep Inc. with a 10-μg/mL solution of the Fab of interest in blocking buffer. The purity of >98% and contained chlorine counter ions. The pep- membrane was then washed three times for 5 min each in TBST tides have N-terminal acetylation and C-terminal amidation to buffer, after which it was incubated for 2 h with an anti-human eliminate charges at the peptide termini. Fab genes were codon Fab secondary antibody conjugated to HRP (Sigma-Aldrich) at a optimized, synthesized, and cloned into pHCMV3 vectors by 1:20,000 dilution in blocking buffer. […]
(§3) Antibodies 311 and 317 were selected forITC. A MicroCal Auto-iTC200 (GE Healthcare) was used to structural studies because of their functional activity, high avidity perform ITC measurements. Before the experiments, all proteins index, and similar heavy-chain germline genes. were extensively dialyzed against Dulbecco’s PBS (Thermo Evaluation of the Protective Activity of mAbs. mAbs (100 μg for Fischer). The peptides were placed in the syringe at a concentration Ab311 and 300 μg for Ab317 and Ab2A10) against the NANP of 122μM for Ac-NPNANPNA-NH2, 116 μM for Ac-repeats of P. falciparum CSP were administered to 7- to 8-wk-old NPNANPNANPNA-NH2,89μM for Ac-[…]- […]
(§4) C57BL/6 mice (five mice per group) by i.v. injection [in 200 μLof NH2, and 110 μM for Ac-DPNANPNVDPNA-NH2, whereas the […]
(§5) PBS (pH 7.4)]. The mice were challenged 5–10 min later by i.v. concentrations of Fab fragments in the cell were 10.3 and 9.7 μM injection with 2,000 P. berghei chimeric sporozoites expressing for Fab311 and Fab317, respectively. The Fab and peptide P. falciparum CSP (3D7 strain) generated as previously described concentrations were determined by UV absorbance at 280 nm (22). Forty hours later, livers were harvested, and RNA was and 205 nm. Molar extinction coefficients for the peptides were isolated to quantify the malaria-specific 18s rRNA levels by real- estimated using a previously published method (35). Experi-time PCR (34). Inhibition of parasite development was calcu- ments were carried out in triplicate at 25 °C, except for lated by comparing the parasite liver burdens of experimental Fab317 binding to Ac-[…]-NH2, which was […]
(§6) and naive control mice. The statistical analyses were done with done in duplicate, and consisted of 16 injections of 2.45 μL each, the Mann–Whitney U test. Data were plotted using GraphPad with injection duration of 4.9 s, inject io n interval of 180 s, and Prism 6.0 software. No samples were excluded from statistical reference power of 5 μCa l. Fi tt in g of the integrate d titrati on analyses. peaks was performed with Origin 7.0 software using a single-site binding model. The first data point and any outliers were Expression and Purification of Recombinant CSP. The rsCSP con- excluded from the fit. […]
(§7) Two 1-L NaCl, 2.7 mM KCl, pH 8.0) with a 5:1 molar ratio of (NPNA)3 cultures were inoculated the next day with 25 mL overnight peptide to Fab. Crystals were grown using sitting-drop vapor culture and were grown at 37 °C. When the optical density at diffusion with a well solution containing 0.1 M MES (pH 6.0), 600 nm reached a value of 1, the cultures were induced with 36% PEG400, 5% PEG3000 for the Fab311–peptide complex, 1 mM isopropyl β-D-1-thiogalactopyranoside for 6 h. The cells and 0.1 M sodium citrate (pH 4.0), 1 M lithium chloride, 20% then were harvested and lysed by microfluidization. The lysate PEG6000 for the Fab317–peptide complex. Crystals were grown was incubated overnight with Ni cOmplete resin (Roche) and at 298 K and typically appeared within 3 d. Fab311–peptide was eluted using a buffer containing 200 mM imidazole. Typi- crystals were cryo-cooled without additional cryoprotection, cally, 10 mg of protein was obtained per 2 L of culture. Samples while Fab317–peptide crystals were cryoprotected by soaking in […]

[2] = tested on: Fab317; assay: ITC affinity measurement of peptides to Fab317; type: binding, human; conditions: 25 °C, Dulbecco's PBS, Fab317 9.7 μM in cell
Experimental: as §1, §2, §3, §4, §5, §6, §7

[3] = average and SD of triplicate experiments
[4] = peptide 89 μM in syringe, duplicate experiments

## CC(=O)N[C@@H](CC(N)=O)C(=O)N1CCC[C@H]1C(=O)N[C@@H](CC(N)=O)C(=O)N[C@@H](C)C(=O)N[C@@H](CC(N)=O)C(=O)N1CCC[C@H]1C(=O)N[C@@H](CC(N)=O)C(=O)N[C@@H](C)C(N)=O [(NPNA)2, Ac-NPNANPNA-NH2]
[1]
  ∆H: −16,363 ± 261 cal/mol
  ∆S: −25 ± 1 cal^−1⋅mol^−1⋅degree^−1
[2]; [3]
  ∆H: −12,090 ± 221 cal/mol
  ∆S: −10 ± 1 cal^−1⋅mol^−1⋅degree^−1

## CC(=O)N[C@@H](CC(N)=O)C(=O)N1CCC[C@H]1C(=O)N[C@@H](CC(N)=O)C(=O)N[C@@H](C)C(=O)N[C@@H](CC(N)=O)C(=O)N1CCC[C@H]1C(=O)N[C@@H](CC(N)=O)C(=O)N[C@@H](C)C(=O)N[C@@H](CC(N)=O)C(=O)N1CCC[C@H]1C(=O)N[C@@H](CC(N)=O)C(=O)N[C@@H](C)C(N)=O [(NPNA)3, Ac-NPNANPNANPNA-NH2]
[1]
  ∆H: −29,823 ± 261 cal/mol
  ∆S: −70 ± 1 cal^−1⋅mol^−1⋅degree^−1
[2]; [3]
  ∆H: −15,700 ± 225 cal/mol
  ∆S: −20 ± 1 cal^−1⋅mol^−1⋅degree^−1

## Ac-DPNANPNVDPNA-NH2 [DPNANPNVDPNA, Ac-DPNANPNVDPNA-NH2]
[1]
  ∆H: −20,200 ± 1,078 cal/mol
  ∆S: −41 ± 4 cal^−1⋅mol^−1⋅degree^−1
[2]; [3]
  ∆H: −9,387 ± 152 cal/mol
  ∆S: −2 ± 1 cal^−1⋅mol^−1⋅degree^−1

## Ac-NPNVDPNANPNV-NH2 [NPNVDPNANPNV, Ac-NPNVDPNANPNV-NH2]
[1]
  ∆H: −18,657 ± 378 cal/mol
  ∆S: −36 ± 2 cal^−1⋅mol^−1⋅degree^−1
[2]; [4]
  ∆H: −9,657 ± 426 cal/mol
  ∆S: −10 ± 2* cal^−1⋅mol^−1⋅degree^−1
